Assay results from patent US9926581B2, “Fagopyritol synthase genes and uses thereof” (Cornell Research Foundation, Inc., priority 2002, dated 2018).

Tests used:
buckwheat embryos = experiment: Soluble carbohydrates in buckwheat embryos from seeds matured at 15, 22 or 30° C.; type: in vivo, Fagopyrum esculentum Moench
soybean explants [1] = experiment: Soybean explant feeding 3 days with 50 mM cyclitol in 1% sucrose, slow drying time course, soluble carbohydrates in axis, cotyledon, seed coat and leaf
immature soybean embryos = experiment: Embryo feeding experiments: cyclitols fed to immature soybean embryos, precocious maturation by slow drying, soluble carbohydrates in axis and cotyledons; type: in vivo, Glycine max (L.) Merrill
soybean explants [2] = experiment: Soybean explant feeding with 50 mM free cyclitols for one week, soluble carbohydrates in mature seeds; type: in vivo, Glycine max (L.) Merrill cv. Chippewa 64; settings: axis and cotyledon tissue of mature seeds
[3] = 3 days transport of sucrose (1%) and D-chiro-inositol (50 mM), after 2 days slow drying, Rep 1
[4] = 3 days transport of sucrose (1%) and D-chiro-inositol (50 mM), after 2 days slow drying, Rep 2
[5] = 3 days transport of sucrose (1%) and D-chiro-inositol (50 mM), after 4 days slow drying, Rep 1
[6] = 3 days transport of sucrose (1%) and D-chiro-inositol (50 mM), after 4 days slow drying, Rep 2
[7] = 3 days transport of sucrose (1%) and D-chiro-inositol (50 mM), after 14 days slow drying, Rep 1
[8] = 3 days transport of sucrose (1%) and D-chiro-inositol (50 mM), after 14 days slow drying, Rep 2
[9] = 3 days transport of sucrose (1%) and D-chiro-inositol (50 mM), before slow drying, Rep 1
[10] = 3 days transport of sucrose (1%) and D-chiro-inositol (50 mM), before slow drying, Rep 2
[11] = 3 days transport of sucrose (1%) and D-pinitol (50 mM), after 2 days slow drying, Rep 1
[12] = 3 days transport of sucrose (1%) and D-pinitol (50 mM), after 2 days slow drying, Rep 2
[13] = 3 days transport of sucrose (1%) and D-pinitol (50 mM), after 4 days slow drying, Rep 1
[14] = 3 days transport of sucrose (1%) and D-pinitol (50 mM), after 4 days slow drying, Rep 2
[15] = 3 days transport of sucrose (1%) and D-pinitol (50 mM), after 14 days slow drying, Rep 1
[16] = 3 days transport of sucrose (1%) and D-pinitol (50 mM), after 14 days slow drying, Rep 2
[17] = 3 days transport of sucrose (1%) and D-pinitol (50 mM), before slow drying, Rep 1
[18] = 3 days transport of sucrose (1%) and D-pinitol (50 mM), before slow drying, Rep 2
[19] = 3 days transport of sucrose (1%) and myo-inositol (50 mM), after 2 days slow drying, Rep 1
[20] = 3 days transport of sucrose (1%) and myo-inositol (50 mM), after 2 days slow drying, Rep 2
[21] = 3 days transport of sucrose (1%) and myo-inositol (50 mM), after 4 days slow drying, Rep 1
[22] = 3 days transport of sucrose (1%) and myo-inositol (50 mM), after 4 days slow drying, Rep 2
[23] = 3 days transport of sucrose (1%) and myo-inositol (50 mM), after 14 days slow drying, Rep 1
[24] = 3 days transport of sucrose (1%) and myo-inositol (50 mM), after 14 days slow drying, Rep 2
[25] = 3 days transport of sucrose (1%) and myo-inositol (50 mM), before slow drying, Rep 1
[26] = 3 days transport of sucrose (1%) and myo-inositol (50 mM), before slow drying, Rep 2
[27] = 3 days transport of sucrose (1%) without cyclitols, after 2 days slow drying, Rep 1
[28] = 3 days transport of sucrose (1%) without cyclitols, after 2 days slow drying, Rep 2
[29] = 3 days transport of sucrose (1%) without cyclitols, after 4 days slow drying, Rep 1
[30] = 3 days transport of sucrose (1%) without cyclitols, after 4 days slow drying, Rep 2
[31] = 3 days transport of sucrose (1%) without cyclitols, after 14 days slow drying, Rep 1
[32] = 3 days transport of sucrose (1%) without cyclitols, after 14 days slow drying, Rep 2
[33] = 3 days transport of sucrose (1%) without cyclitols, before slow drying, Rep 1
[34] = 3 days transport of sucrose (1%) without cyclitols, before slow drying, Rep 2

OC[C@H]1O[C@H](OC[C@H]2O[C@H](OC[C@H]3O[C@H](O[C@]4(CO)O[C@H](CO)[C@@H](O)[C@@H]4O)[C@H](O)[C@@H](O)[C@@H]3O)[C@H](O)[C@@H](O)[C@H]2O)[C@H](O)[C@@H](O)[C@H]1O [Stachyose, stachyose]
Minor soluble carbohydrates in buckwheat embryos (buckwheat embryos; maturation temperature 15° C., 16 DAP): 0 μg/embryo
Minor soluble carbohydrates in buckwheat embryos (buckwheat embryos; maturation temperature 15° C., 20 DAP): 0 μg/embryo
Minor soluble carbohydrates in buckwheat embryos (buckwheat embryos; maturation temperature 15° C., 28 DAP): 0 μg/embryo
Minor soluble carbohydrates in buckwheat embryos (buckwheat embryos; maturation temperature 15° C., 28 DAP + 2 wk 12% RH): 0 μg/embryo
Minor soluble carbohydrates in buckwheat embryos (buckwheat embryos; maturation temperature 22° C., 20 DAP): 0 μg/embryo
Minor soluble carbohydrates in buckwheat embryos (buckwheat embryos; maturation temperature 22° C., 28 DAP): 3.04 ± 3.04 μg/embryo
Minor soluble carbohydrates in buckwheat embryos (buckwheat embryos; maturation temperature 30° C., 20 DAP): 2.71 ± 2.71 μg/embryo
Minor soluble carbohydrates in buckwheat embryos (buckwheat embryos; maturation temperature 30° C., 28 DAP): 5.07 ± 2.53 μg/embryo
Accumulation of soluble carbohydrates in soybean axis (soybean explants [1]; [3]): 11.56 μg/axis
Accumulation of soluble carbohydrates in soybean cotyledon (soybean explants [1]; [3]): 44.86 μg/cotyledon
Accumulation of soluble carbohydrates in soybean seed coat (soybean explants [1]; [3]): 0 μg/seed coat
Accumulation of soluble carbohydrates in soybean axis (soybean explants [1]; [4]): 8.94 μg/axis
Accumulation of soluble carbohydrates in soybean cotyledon (soybean explants [1]; [4]): 0 μg/cotyledon
Accumulation of soluble carbohydrates in soybean seed coat (soybean explants [1]; [4]): 0 μg/seed coat
Accumulation of soluble carbohydrates in soybean axis (soybean explants [1]; [5]): 49.55 μg/axis
Accumulation of soluble carbohydrates in soybean cotyledon (soybean explants [1]; [5]): 308.62 μg/cotyledon
Accumulation of soluble carbohydrates in soybean seed coat (soybean explants [1]; [5]): 0 μg/seed coat
Accumulation of soluble carbohydrates in soybean axis (soybean explants [1]; [6]): 22.07 μg/axis
Accumulation of soluble carbohydrates in soybean cotyledon (soybean explants [1]; [6]): 277.15 μg/cotyledon
Accumulation of soluble carbohydrates in soybean seed coat (soybean explants [1]; [6]): 0 μg/seed coat
Accumulation of soluble carbohydrates in soybean axis (soybean explants [1]; [7]): 47.82 μg/axis
Accumulation of soluble carbohydrates in soybean cotyledon (soybean explants [1]; [7]): 357.02 μg/cotyledon
Accumulation of soluble carbohydrates in soybean seed coat (soybean explants [1]; [7]): 0 μg/seed coat
Accumulation of soluble carbohydrates in soybean axis (soybean explants [1]; [8]): 39.47 μg/axis
Accumulation of soluble carbohydrates in soybean cotyledon (soybean explants [1]; [8]): 349.60 μg/cotyledon
Accumulation of soluble carbohydrates in soybean seed coat (soybean explants [1]; [8]): 15.45 μg/seed coat
Accumulation of soluble carbohydrates in soybean axis (soybean explants [1]; [9]): 0 μg/axis
Accumulation of soluble carbohydrates in soybean cotyledon (soybean explants [1]; [9]): 0 μg/cotyledon
Accumulation of soluble carbohydrates in soybean axis (soybean explants [1]; [10]): 0 μg/axis
Accumulation of soluble carbohydrates in soybean cotyledon (soybean explants [1]; [10]): 0 μg/cotyledon
Accumulation of soluble carbohydrates in soybean axis (soybean explants [1]; [11]): 11.91 μg/axis
Accumulation of soluble carbohydrates in soybean cotyledon (soybean explants [1]; [11]): 0 μg/cotyledon
Accumulation of soluble carbohydrates in soybean seed coat (soybean explants [1]; [11]): 0 μg/seed coat
Accumulation of soluble carbohydrates in soybean axis (soybean explants [1]; [12]): 7.69 μg/axis
Accumulation of soluble carbohydrates in soybean cotyledon (soybean explants [1]; [12]): 0 μg/cotyledon
Accumulation of soluble carbohydrates in soybean seed coat (soybean explants [1]; [12]): 0 μg/seed coat
Accumulation of soluble carbohydrates in soybean axis (soybean explants [1]; [13]): 79.54 μg/axis
Accumulation of soluble carbohydrates in soybean cotyledon (soybean explants [1]; [13]): 211.21 μg/cotyledon
Accumulation of soluble carbohydrates in soybean seed coat (soybean explants [1]; [13]): 0 μg/seed coat
Accumulation of soluble carbohydrates in soybean axis (soybean explants [1]; [14]): 28.64 μg/axis
Accumulation of soluble carbohydrates in soybean cotyledon (soybean explants [1]; [14]): 552.89 μg/cotyledon
Accumulation of soluble carbohydrates in soybean seed coat (soybean explants [1]; [14]): 0 μg/seed coat
Accumulation of soluble carbohydrates in soybean axis (soybean explants [1]; [15]): 54.54 μg/axis
Accumulation of soluble carbohydrates in soybean cotyledon (soybean explants [1]; [15]): 268.51 μg/cotyledon
Accumulation of soluble carbohydrates in soybean seed coat (soybean explants [1]; [15]): 0 μg/seed coat
Accumulation of soluble carbohydrates in soybean axis (soybean explants [1]; [16]): 78.56 μg/axis
Accumulation of soluble carbohydrates in soybean cotyledon (soybean explants [1]; [16]): 427.70 μg/cotyledon
Accumulation of soluble carbohydrates in soybean seed coat (soybean explants [1]; [16]): 64.19 μg/seed coat
Accumulation of soluble carbohydrates in soybean axis (soybean explants [1]; [17]): 0 μg/axis
Accumulation of soluble carbohydrates in soybean cotyledon (soybean explants [1]; [17]): 0 μg/cotyledon
Accumulation of soluble carbohydrates in soybean axis (soybean explants [1]; [18]): 0 μg/axis
Accumulation of soluble carbohydrates in soybean cotyledon (soybean explants [1]; [18]): 0 μg/cotyledon
Accumulation of soluble carbohydrates in soybean axis (soybean explants [1]; [19]): 9.92 μg/axis
Accumulation of soluble carbohydrates in soybean cotyledons (soybean explants [1]; [19]): 0 μg/cotyledon
Accumulation of soluble carbohydrates in soybean seed coats (soybean explants [1]; [19]): 0 μg/seed coat
Accumulation of soluble carbohydrates in soybean axis (soybean explants [1]; [20]): 6.33 μg/axis
Accumulation of soluble carbohydrates in soybean cotyledons (soybean explants [1]; [20]): 50.41 μg/cotyledon
Accumulation of soluble carbohydrates in soybean seed coats (soybean explants [1]; [20]): 0 μg/seed coat
Accumulation of soluble carbohydrates in soybean axis (soybean explants [1]; [21]): 62.18 μg/axis
Accumulation of soluble carbohydrates in soybean cotyledons (soybean explants [1]; [21]): 224.95 μg/cotyledon
Accumulation of soluble carbohydrates in soybean axis (soybean explants [1]; [22]): 55.60 μg/axis
Accumulation of soluble carbohydrates in soybean cotyledons (soybean explants [1]; [22]): 774.04 μg/cotyledon
Accumulation of soluble carbohydrates in soybean seed coats (soybean explants [1]; [22]): 0 μg/seed coat
Accumulation of soluble carbohydrates in soybean axis (soybean explants [1]; [23]): 89.46 μg/axis
Accumulation of soluble carbohydrates in soybean cotyledons (soybean explants [1]; [23]): 399.25 μg/cotyledon
Accumulation of soluble carbohydrates in soybean seed coats (soybean explants [1]; [23]): 20.21 μg/seed coat
Accumulation of soluble carbohydrates in soybean axis (soybean explants [1]; [24]): 57.18 μg/axis
Accumulation of soluble carbohydrates in soybean cotyledons (soybean explants [1]; [24]): 323.00 μg/cotyledon
Accumulation of soluble carbohydrates in soybean seed coats (soybean explants [1]; [24]): 35.12 μg/seed coat
Accumulation of soluble carbohydrates in soybean axis (soybean explants [1]; [25]): 0 μg/axis
Accumulation of soluble carbohydrates in soybean cotyledons (soybean explants [1]; [25]): 0 μg/cotyledon
Accumulation of soluble carbohydrates in soybean axis (soybean explants [1]; [26]): 0 μg/axis
Accumulation of soluble carbohydrates in soybean cotyledons (soybean explants [1]; [26]): 0 μg/cotyledon
Accumulation of soluble carbohydrates in soybean axis (soybean explants [1]; [27]): 0 μg/axis
Accumulation of soluble carbohydrates in soybean cotyledon (soybean explants [1]; [27]): 12.20 μg/cotyledon
Accumulation of soluble carbohydrates in soybean seed coats (soybean explants [1]; [27]): 0 μg/seed coat
Accumulation of soluble carbohydrates in soybean axis (soybean explants [1]; [28]): 27.73 μg/axis
Accumulation of soluble carbohydrates in soybean cotyledon (soybean explants [1]; [28]): 18.15 μg/cotyledon
Accumulation of soluble carbohydrates in soybean seed coats (soybean explants [1]; [28]): 0 μg/seed coat
Accumulation of soluble carbohydrates in soybean axis (soybean explants [1]; [29]): 96.03 μg/axis
Accumulation of soluble carbohydrates in soybean cotyledon (soybean explants [1]; [29]): 773.51 μg/cotyledon
Accumulation of soluble carbohydrates in soybean seed coats (soybean explants [1]; [29]): 0 μg/seed coat
Accumulation of soluble carbohydrates in soybean axis (soybean explants [1]; [30]): 118.05 μg/axis
Accumulation of soluble carbohydrates in soybean cotyledon (soybean explants [1]; [30]): 516.66 μg/cotyledon
Accumulation of soluble carbohydrates in soybean seed coats (soybean explants [1]; [30]): 0 μg/seed coat
Accumulation of soluble carbohydrates in soybean axis (soybean explants [1]; [31]): 101.39 μg/axis
Accumulation of soluble carbohydrates in soybean cotyledon (soybean explants [1]; [31]): 1331.00 μg/cotyledon
Accumulation of soluble carbohydrates in soybean seed coats (soybean explants [1]; [31]): 0 μg/seed coat
Accumulation of soluble carbohydrates in soybean axis (soybean explants [1]; [32]): 69.71 μg/axis
Accumulation of soluble carbohydrates in soybean cotyledon (soybean explants [1]; [32]): 904.20 μg/cotyledon
Accumulation of soluble carbohydrates in soybean seed coats (soybean explants [1]; [32]): 16.46 μg/seed coat
Accumulation of soluble carbohydrates in soybean axis (soybean explants [1]; [33]): 0 μg/axis
Accumulation of soluble carbohydrates in soybean cotyledon (soybean explants [1]; [33]): 0 μg/cotyledon
Accumulation of soluble carbohydrates in soybean axis (soybean explants [1]; [34]): 7.83 μg/axis
Accumulation of soluble carbohydrates in soybean cotyledon (soybean explants [1]; [34]): 0 μg/cotyledon
change after feeding myo-inositol (soybean explants [1]; seed coat of dry seeds (14 days slow drying)): doubled
change in concentration after feeding myo-inositol (immature soybean embryos; axis and cotyledon tissues, myo-inositol up to 50 mM, after precocious maturation): little change
increase in concentration after feeding D-chiro-inositol (immature soybean embryos; axis and cotyledons, concentration series, 14 days precocious maturation): did not increase
change in concentration after feeding 50 mM myo-inositol to explants (soybean explants [2]): No significant changes
